Several values for one entry are separate records, joined by “and”; a condition that tells them apart may be missing. Equal values may be shown once. Where a name gives a salt, the structure may show the parent alone. This is one part of the list. The data scatter; read single values as rough.
test system: Peyronie's disease tunica albuginea primary fibroblasts; assay: inhibition of TGF-beta1-induced alpha-SMA expression (myofibroblast transformation), relative to TGF-beta1-only and untreated controls; higher = stronger inhibition of myofibroblast transformation; details: 10 µM; TGF-beta1 10 ng/mL; 72 h

Row | Structure (SMILES) | inhibition of TGF-beta1-induced alpha-SMA expression
1 | C[C@H](CCC(=O)O)[C@H]1CC[C@H]2[C@@H]3[C@H](O)C[C@@H]4C[C@H](O)CC[C@]4(C)[C@H]3CC[C@]12C [Chenodeoxycholic Acid] | 21%
2 | NNc1nncc2ccccc12 [Hydralazine HCl] | 11.8%
3 | CC(=O)OCC(CCn1cnc2cnc(N)nc21)COC(C)=O [Famciclovir] | -9.48%
4 | CN1CCN(CCCN2c3ccccc3Sc3ccc(Cl)cc32)CC1 [Prochlorperazine dimaleate salt] | 59.3%
5 | CN1CCN(CCCN2c3ccccc3Sc3ccc(Cl)cc32)CC1 [Prochlorperazine Dimaleate] | 92.3%
6 | Cc1nc(=O)c2cc(CN(C)c3ccc(C(=O)N[C@@H](CCC(=O)O)C(=O)O)s3)ccc2[nH]1 [Raltitrexed] | 42%
7 | CC(/C=C1\SC(=S)N(CC(=O)O)C1=O)=C\c1ccccc1 [Epalrestat] | 4.15%
8 | CC(=O)[C@]1(O)Cc2c(O)c3c(c(O)c2[C@@H](O[C@H]2C[C@H](N)[C@H](O)[C@H](C)O2)C1)C(=O)c1ccccc1C3=O [Idarubicin HCl] | > 100%
9 | O=c1oc2ccccc2c(O)c1Cc1c(O)c2ccccc2oc1=O [Dicoumarol] | 27%
10 | COc1ccc([C@]2(C#N)CC[C@@H](C(=O)O)CC2)cc1OC1CCCC1 [Cilomilast] | 41.1%
11 | COCC[n+]1c2c(n(Cc3cnccn3)c1C)C(=O)c1ccccc1C2=O [YM155 (Sepantronium Bromide)] | > 100%
12 | C[C@@H]1CCN(C(=O)CC#N)C[C@@H]1N(C)c1ncnc2[nH]ccc12 | -18.1% and -29.3%
13 | O=c1[nH]c(=O)n(C2CCCO2)cc1F (stereo not given) | -16.9%
14 | CN(C)c1nc(N(C)C)nc(N(C)C)n1 [Altretamine] | 40.2%
15 | CCn1c(=O)c(-c2cc[nH]n2)cc2c(C)nc(N)nc21 | > 100%
16 | COc1cc2c(Oc3ccc4[nH]c(C)cc4c3F)ncnc2cc1OCCCN1CCCC1 [Cediranib (AZD2171)] | 86%
17 | O=C(O)c1cc(-c2ccccc2)nc2ccccc12 [Cinchophen] | > 100%
18 | CC(=O)O[C@]1(C(C)=O)CC[C@H]2[C@@H]3C[C@H](C)C4=CC(=O)CC[C@]4(C)[C@H]3CC[C@@]21C [Medroxyprogesterone acetate] | 62.8%
19 | C[C@H]1CNCCCN1S(=O)(=O)c1cccc2cncc(F)c12 [Ripasudil (K-115) hydrochloride dihydrate] | 92.8%
20 | C[C@H]1C[C@@H]2[C@H]([C@@H](O)C[C@@]3(C)[C@H]2CC[C@]3(O)C(=O)CO)[C@@]2(C)C=CC(=O)C=C12 [Methylprednisolone] | 39%

Given as a markdown table: part of the list above.

| Row | Structure (SMILES) | inhibition of TGF-beta1-induced alpha-SMA expression |
| --- | --- | --- |
| 14 | CN(C)c1nc(N(C)C)nc(N(C)C)n1 [Altretamine] | 40.2% |
| 15 | CCn1c(=O)c(-c2cc[nH]n2)cc2c(C)nc(N)nc21 | > 100% |

Reference: the supplement of paper PMC9744312
